# In PMC10739246 (ACS Bio & Med Chem Au, 2023):
# Test: MTT cytotoxicity assay
# Settings: human
structure (smiles),measurement,value
CN[C@@H]1C[C@H]2O[C@@](C)([C@@H]1OC)n1c3ccccc3c3c4c(c5c6ccccc6n2c5c31)C(=O)NC4 [staurosporine],IC50 at 24 h,19.5 ± 0.97 µM
